This is an account of results in patent US4631270A (priority 1985, dated 1986).

Strings that start with PEPTIDE1 are HELM notation: dots part the residues, brackets hold end groups and non-standard residues.

A short description of the data set: general procedure: Boc solid-phase peptide synthesis; benzhydrylamine resin.

Substance “PEPTIDE1{[ac].P.Q.[GlyPsiLeu].A.G.L.R.[am]}$$$$V2.0” registered a step yield (purification step, on 55 mg loaded) of 58%. For the same substance, for the setting “whole synthesis”, the crude yield is 80%.
